Data: publication PMC7237480
Results are given in words; binding and its absence hold for the method and conditions named. Binding seen in cells or lysates may run through a third protein. Some entries that bind do so weakly or less than the wild type. Tags and fused reporters may be left off the sequences shown.

Molecular target: T1, AtIBH1-cYFP (Arabidopsis thaliana) (UniProt Q9SKX1)
T1 sequence: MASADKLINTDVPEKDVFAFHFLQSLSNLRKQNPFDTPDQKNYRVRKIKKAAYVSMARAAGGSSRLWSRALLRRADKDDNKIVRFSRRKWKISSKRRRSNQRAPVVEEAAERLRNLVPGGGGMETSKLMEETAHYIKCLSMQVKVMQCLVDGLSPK
Assay: split reporter; nYFP and cYFP fusions co-transformed into Arabidopsis mesophyll protoplasts (the legend says gerbera); dark, 23 °C, 22 h; confocal microscopy

B1: AtHBI1-nYFP (protein, UniProt Q9ZPW3 1-337)
chain: MLEGLVSQESLSLNSMDMSVLERLKWVQQQQQQLQQVVSHSSNNSPELLQILQFHGSNNDELLESSFSQFQMLGSGFGPNYNMGFGPPHESISRTSSCHMEPVDTMEVLLKTGEETRAVALKNKRKPEVKTREEQKTEKKIKVEAETESSMKGKSNMGNTEASSDTSKETSKGASENQKLDYIHVRARRGQATDRHSLAERARREKISKKMKYLQDIVPGCNKVTGKAGMLDEIINYVQCLQRQVEFLSMKLAVLNPELELAVEDVSVKQFQAYFTNVVASKQSIMVDVPLFPLDQQGSLDLSAINPNQTTSIEAPSGSWETQSQSLYNTSSLGFHY
binding: binds
